Results from paper PMC12166087.
Results are given in words; binding and its absence hold for the method and conditions named. In cells and extracts the contact can be indirect. Some entries that bind do so weakly or less than the wild type.

Sequences of proteins named here, by UniProt entry; tags and fusion partners are left off.
UniProt Q13772: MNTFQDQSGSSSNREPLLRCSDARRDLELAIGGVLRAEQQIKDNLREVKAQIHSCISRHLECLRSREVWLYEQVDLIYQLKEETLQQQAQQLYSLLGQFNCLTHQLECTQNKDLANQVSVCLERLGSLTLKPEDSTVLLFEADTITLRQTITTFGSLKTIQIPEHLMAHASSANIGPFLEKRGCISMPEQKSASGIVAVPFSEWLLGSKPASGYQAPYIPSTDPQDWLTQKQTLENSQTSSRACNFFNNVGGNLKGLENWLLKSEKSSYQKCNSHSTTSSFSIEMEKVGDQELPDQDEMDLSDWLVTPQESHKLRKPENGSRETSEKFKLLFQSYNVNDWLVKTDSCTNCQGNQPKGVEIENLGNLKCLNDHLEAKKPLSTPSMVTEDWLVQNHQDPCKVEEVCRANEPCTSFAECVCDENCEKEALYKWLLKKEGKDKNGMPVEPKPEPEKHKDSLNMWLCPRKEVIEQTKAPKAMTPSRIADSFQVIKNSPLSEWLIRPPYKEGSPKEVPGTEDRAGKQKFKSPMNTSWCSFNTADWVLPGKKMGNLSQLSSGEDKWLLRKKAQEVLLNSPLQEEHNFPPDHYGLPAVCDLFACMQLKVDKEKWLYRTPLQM

Target: T1, Ubiquitin-specific protease 18 (USP18) (human (endogenous in HepG2)) (UniProt Q9UMW8)
T1 sequence: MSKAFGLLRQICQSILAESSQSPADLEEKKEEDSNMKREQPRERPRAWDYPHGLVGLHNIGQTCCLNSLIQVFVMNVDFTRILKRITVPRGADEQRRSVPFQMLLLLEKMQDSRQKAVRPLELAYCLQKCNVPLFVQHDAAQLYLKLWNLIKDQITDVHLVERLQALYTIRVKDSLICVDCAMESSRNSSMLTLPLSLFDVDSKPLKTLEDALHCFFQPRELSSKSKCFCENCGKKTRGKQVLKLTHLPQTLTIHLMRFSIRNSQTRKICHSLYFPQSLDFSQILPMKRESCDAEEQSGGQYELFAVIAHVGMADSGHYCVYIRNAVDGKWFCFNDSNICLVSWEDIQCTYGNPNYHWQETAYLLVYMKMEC
Test: co-IP; HepG2 cell lysates immunoprecipitated with anti-USP18 antibodies and blotted with anti-NCOA4 antibodies

binding: binds
Substance: Nuclear receptor coactivator 4 (NCOA4) (from UniProt Q13772 1-614)
